Library screening results

Data taken from ChEMBL document CHEMBL3988442, “University of Dundee, Small-Polar-MMV Screening Library” (2021).

Each number is a percent effect as filed. How 0% and 100% were set is not recorded. Most values in the screen are low, and negative values occur. Compounds were drawn at random from those tested, without regard to their results. A dash means the value is not listed here; it may have been measured.

Mtb growth Cornell: 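Whole-cell assay for inhibitors of Mycobacterium tuberculosis growth, labelled Cornell in the record; the read-out is not stated. The concentration is filed as 10 mM, unlikely as a test dose, so the dose is not known. The record gives no direction; compounds strong in two other growth screens of this library score well above the rest, so higher reads as stronger inhibition. Of about 53,000 compounds tested this way, about 900 (1.7%) reached 50% or more in at least one test.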
Mtb heat-shock: 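Assay on Mycobacterium tuberculosis, filed only as a heat shock assay from Cornell; the read-out is not stated. The concentration is filed as 10 mM, unlikely as a test dose, so the dose is not known. The record gives no direction; compounds that gave an IC50 in retests scored well above the rest, so higher reads as stronger inhibition. Of about 69,000 compounds tested this way, about 930 (1.4%) reached 50% or more in at least one test.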

structure	Mtb growth Cornell	Mtb heat-shock
CCN(CC)S(=O)(=O)N1CCCC(c2nccn2Cc2cccnc2)C1 (stereo unspecified)	30.45%	7.872%
Cc1ccc(-c2nc(CN3CCCC3Cn3cc(C)cn3)no2)cc1 (stereo unspecified)	-	31.99%
CC(C)(C)c1ncc(C(=O)NCCNC(=O)c2ccccc2)s1	2.778%	21.06%
O=C(CN1C(=O)CCC1=O)NCCc1nc(C2CC2)cc(C(F)(F)F)n1	-9.401%	-13.58%
Cc1cccc(NC(=O)Cn2ncc(SCC(N)=O)c(Cl)c2=O)c1C	-5.44%	-2.155%
[H][C@@]12CN(C(=O)CO)C[C@]1([H])C(=O)N(Cc1cccc(F)c1)C2	1.047%	-15.79%
Cc1cc(CN(C)C2CCCN(c3cccnn3)C2)on1 (stereo unspecified)	15.07%	-6.551%
Cc1ccc(-c2ncc(C(=O)NS(C)(=O)=O)s2)c(C)c1	-	-8.881%
CC(=O)Nc1nc(C2CCN(C(=O)Cc3ccccc3)CC2)cs1	-0.308%	2.396%
CCCc1noc(C2CC(=O)N(Cc3ccccc3)C2)n1 (stereo unspecified)	12.11%	6.72%
O=C(OCC1CCCN(C(=O)c2ccccc2)C1)c1cscn1 (stereo unspecified)	-12.36%	-40.92%
COc1cc(C(C)NCc2scnc2C)ccc1SC(F)F (stereo unspecified)	26.9%	1.962%
OCC1CCCN(Cc2c(C3CCCC3)[nH]c3ncccc23)C1 (stereo unspecified)	-27.07%	-11.5%
CCN(Cc1ccc(OC)c(F)c1)Cc1nc2c(cnn2C)c(=O)[nH]1	-	3.112%
CC(NC(=O)Nc1cccnc1N1CCCC1)c1nncn1C (stereo unspecified)	-9.873%	6.794%
CSc1ccc(-c2noc(CN(Cc3ccccc3)C(C)C)n2)cc1	41.92%	18.56%
[H][C@@]12COC[C@H](C(=O)Nc3cnccn3)[C@]1([H])CN(c1ncc(F)cn1)C2	17.44%	-25.72%
CC(C)OCCSCc1nnc(-c2cccc(F)c2)o1	16.76%	9.724%
Cc1nccn1C1CCCN(C(=O)Cc2cn3ccccc3n2)C1 (stereo unspecified)	-	-55.83%
O=C(O)C(F)(F)F.O=C(c1ccncc1)N1CCC2(CC1)C(=O)Nc1ccccc12	17.06%	-23.83%
CC(C)c1nnc2sc(CC3CN(Cc4ccccc4)CCO3)nn12 (stereo unspecified)	-19.21%	-10.85%
O=C(O)COc1ccc(CN2CCCC(Cc3cccnc3)C2)cc1 (stereo unspecified)	15.78%	5.088%
CCc1noc(CN2CCCN(C(N)=O)CC2)n1	1.648%	4.077%
CCOCC1CN(Cc2cnn(C)c2)Cc2nn(C)cc21.O=C(O)C(F)(F)F (stereo unspecified)	4.79%	1.472%
CC(C)(C)CC(=O)N1[C@@H](c2ccco2)[C@@H](CO)C[C@]12CCCCNC2=O	-48.27%	20.83%
CCNC(=O)C1CCN(Cn2nc(-c3ccccc3)oc2=O)CC1	-	-3.162%
CN1CCCC(Cc2cncc(C(=O)N3CCOCC3)c2)C1 (stereo unspecified)	-32.69%	-28.53%
Cn1cc(CN2CCc3nc(-c4ccccn4)nc(O)c3C2)cn1	-	-0.7813%
Cc1ccc(S(=O)(=O)NC[C@H]2OC[C@@H](NCc3ccccc3)[C@@H]2O)cc1	2.233%	-12.84%
O=C(O)c1nnn(Cc2cccc(C(F)(F)F)c2)c1-c1ccccn1	9.849%	16.74%
Cn1nc(CNC(=O)C2CCN(S(C)(=O)=O)CC2)cc1C1CC1	-6.07%	7.712%
Cn1cc(C(=O)CC2CCCN2C(=O)c2ccc3[nH]ncc3c2)cn1 (stereo unspecified)	-0.1087%	-18.19%
CCc1nccn1C1CCCN(C(=O)Cc2n[nH]c3ccccc23)C1 (stereo unspecified)	-	2.218%
Cc1cccc(C2(C(=O)NC(C)Cn3ccnc3)CC2)c1 (stereo unspecified)	-	-3.506%
CC(C)c1cc(CN(C)C(=O)CN2CCNC2=O)no1	-1.518%	-15.18%
O=C(O)C(F)(F)F.[H][C@@]12CCCO[C@]1([H])[C@H](OCC(=O)N(C)C)CN2Cc1ccccc1F	-0.01092%	-9.312%
Cc1cc(C)n(C2CCCN(C(=O)CN(C)C3CC3)C2)n1 (stereo unspecified)	4.338%	-4.841%
CC(C)SCCNC(=O)c1cccc2ccnn12	25.01%	-11.2%
NC(=O)N1CCC(NCc2cc(Br)ccc2Cl)CC1	12.45%	-16.14%
Cc1ncnc2c1CCN(Cc1ccc3c(c1)OCO3)CC2.O=C(O)C(F)(F)F	5.177%	-39.03%
Cc1n[nH]c(C2CN(C(=O)c3ccoc3C)CCO2)n1 (stereo unspecified)	-41.51%	-0.4747%
Cc1csc(C2CCCCN2C(=O)c2cn[nH]c2C)n1 (stereo unspecified)	-	-15.2%
c1ccc2oc(C3CCN(Cc4ncon4)CC3)nc2c1	-	-131.1%
COc1c(CNC2CCc3c(F)cccc32)c(C)nn1C.Cl (stereo unspecified)	-	-3.718%
Cn1c(SCC(O)COCc2ccc(Cl)cc2)nnc1C1CC1 (stereo unspecified)	-11.08%	-1.777%
Cc1ccc(C(=O)NCC(C)CN2CCCC2=O)c(=O)[nH]1 (stereo unspecified)	7.689%	-30.5%
CC(NCc1cnn(C)c1)c1noc(-c2ccc(Cl)cc2)n1 (stereo unspecified)	-8.98%	-34.42%
N#Cc1ccc(C(=O)NS(=O)(=O)c2ccc(F)c(F)c2)cc1	-21.24%	-24.08%
Cc1ccc(S(=O)(=O)N2Cc3c(CN(C)C)nn(C)c3C2)cc1	12.31%	7.71%
CCOc1ncc(NC(=O)c2ccccn2)c(OCC)n1	19.5%	8.154%
CCc1noc(C2CC(=O)N(CCN(C)C)C2)n1 (stereo unspecified)	0.04058%	4.781%
COc1ncnc2c1CCN(c1cccc(F)c1)CC2	14.32%	-8.878%
CCn1cc2c(n1)CN(Cc1cnn(C)c1)CC2COCC1CC1.O=C(O)C(F)(F)F (stereo unspecified)	1.851%	-4.626%
CC(O)CN1CCN(Cc2nnc(C3CC3)o2)CC1 (stereo unspecified)	11.32%	22.19%
CC1(C)Cc2cc(-c3cncn3CCNC3CCS(=O)(=O)C3)ccc2O1.Cl (stereo unspecified)	0.3575%	8.949%
CC(=O)NCc1cc2n(n1)CCN(Cc1cccc(Cl)c1Cl)C2	13.71%	9.867%
CCSc1ccc(C(=O)N2CCCC2C(=O)N2CCOCC2)cn1 (stereo unspecified)	3.046%	-4.123%
Cc1cc(C#N)ccc1S(=O)(=O)N1CCN(C)Cc2ccccc21	16.78%	-0.06554%
CC(O)CNc1c(NCc2ccco2)c(=O)c1=O (stereo unspecified)	-23.61%	5.372%
O=C(O)C(F)(F)F.O=C(O)C(F)(F)F.[H][C@]12CCC[C@@]1(COc1ccccn1)CN(C(=O)c1cncc(C)c1)C2	14.16%	-23.58%
CCOC(=O)C1CCCN(Cc2c[nH]nc2-c2cc3ccccc3o2)C1 (stereo unspecified)	-6.734%	-9.237%
COc1ccc(C(C(=O)O)N2CCC(O)(c3cccnc3)CC2)cc1F (stereo unspecified)	-20.8%	-15.94%
CN1CC(Oc2ccc(Cl)cc2)=NC(SCC(=O)Nc2ccccc2)=N1	-	-39.21%
CCc1cnc(N)nc1NC(C)c1ccc(C)c(C)c1 (stereo unspecified)	37.68%	51.29%
CC(C)CCCC1CN(C(=O)c2cnc[nH]2)CCO1 (stereo unspecified)	-0.2054%	-6%
CC1CN(Cc2noc(C3CC3)n2)CCN1Cc1noc(C2CC2)n1 (stereo unspecified)	-	-12.84%
CC(=O)N1CC(=O)N(c2cnn(C)c2)CC12CCN(Cc1ccco1)C2 (stereo unspecified)	9.978%	-4.743%
CCC(Cn1ccnc1)n1cnc2scc(C)c2c1=O (stereo unspecified)	-14.73%	-11.82%

Once more, the final 4:

structure,Mtb growth Cornell,Mtb heat-shock
CC(C)CCCC1CN(C(=O)c2cnc[nH]2)CCO1 (stereo unspecified),-0.2054%,-6%
CC1CN(Cc2noc(C3CC3)n2)CCN1Cc1noc(C2CC2)n1 (stereo unspecified),-,-12.84%
CC(=O)N1CC(=O)N(c2cnn(C)c2)CC12CCN(Cc1ccco1)C2 (stereo unspecified),9.978%,-4.743%
CCC(Cn1ccnc1)n1cnc2scc(C)c2c1=O (stereo unspecified),-14.73%,-11.82%